PubChem BioAssay AID328 (DTP/NCI, 2004)
The list is a part of this screen's results and no random one: it is rich in T/C values a quarter to a half above the control, in often repeated tests (any T/C) and in doses without a T/C. Further doses and runs are listed elsewhere. T/C: endpoint of the treated group in % of that of the vehicle group. Some doses have a count of surviving animals in place of a T/C: the source holds a T/C of zero for them, seemingly a mark for toxic or unscored doses. Some survivor counts are full or nearly so, which does not show that the dose was tolerated: survival well below the control is almost never listed, so the zero probably covers shortened survival too. Counts of survivors are from the toxicity check (mostly the fifth day) where no day follows; animals may have died later. Schedule codes are those of the source, taken here to give the interval after Q, in days (D) or hours (H), and the number of doses after X. Some entries hold several experiments; their values stand side by side, smallest first. Some schedule codes hold Z or #, which are not explained here. For survival time, the PubChem record calls one and a half times the control and up active, and a quarter to a half above the control has no call in these data; cut-offs in other NCI protocols can differ. Some T/C values carry the count of animals alive at the toxicity check (mostly the fifth day); where none is given, no animal had died by that day.

System: BDF1 mice, P388 leukemia ip, median survival T/C
Assay: NCI In Vivo Anticancer Drug Screen. Data for tumor model P388 Leukemia (intraperitoneal) in B6D2F1 (BDF1) mice
Details: T/C endpoint: median survival time, higher T/C = longer survival
Procedure, shortened: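 Compound-treated tumour-bearing mice were compared with vehicle-treated controls. Survival was recorded, and the value is the treated-group measurement divided by the control-group measurement (T/C).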

[1] = dose: 200.0 mg/kg/injection, schedule: Q01DX009 (ip), vehicle: saline
[2] = dose: 100.0 mg/kg/injection, schedule: Q01DX009 (ip), vehicle: saline

SMILES: CC[C@H]1CN2CCc3cc(OC)c(OC)cc3[C@@H]2C[C@@H]1C[C@H]1NCCc2cc(OC)c(OC)cc21
- T/C (dose: 1.0 mg/kg/injection, schedule: Q01DX005 (ip), vehicle: saline): 140 % of control
- T/C (dose: 1.0 mg/kg/injection, schedule: Q01DX009 (ip), vehicle: saline): 145 % of control
- T/C (dose: 1.75 mg/kg/injection, schedule: Q01DX010 (ip), vehicle: saline): 127 and 140 % of control
- T/C (dose: 4.0 mg/kg/injection, schedule: Q## X024 (ip), vehicle: saline): 135 % of control
- T/C (dose: 7.0 mg/kg/injection, schedule: Q01DX010 (ip), vehicle: saline): 125 % of control
- T/C (dose: 7.78 mg/kg/injection, schedule: Q04DX003 (ip), vehicle: saline): 128 and 145 % of control
- survivor count (dose: 8.0 mg/kg/injection, schedule: Q01DX009 (ip), vehicle: saline): 10 of 10
- T/C (dose: 8.0 mg/kg/injection, schedule: Q## X008 (ip), vehicle: saline): 140 % of control
- T/C (dose: 8.0 mg/kg/injection, schedule: Q## X016 (ip), vehicle: saline): 130 % of control
- T/C (dose: 8.0 mg/kg/injection, schedule: Q## X024 (ip), vehicle: saline): 145 % of control
- T/C (dose: 9.0 mg/kg/injection, schedule: Q04DX003 (ip), vehicle: saline): 132 % of control
- survivor count (dose: 12.0 mg/kg/injection, schedule: Q01DX009 (oral), vehicle: saline): 9 of 10
- survivor count (dose: 14.0 mg/kg/injection, schedule: Q01DX010 (ip), vehicle: saline): 2 of 6 and 6 of 6
- T/C (dose: 16.0 mg/kg/injection, schedule: Q01DX001 (ip), vehicle: saline): 140 % of control
- survivor count (dose: 16.0 mg/kg/injection, schedule: Q01DX005 (ip), vehicle: saline): 5 of 10
- survivor count (dose: 16.0 mg/kg/injection, schedule: Q01DX009 (ip), vehicle: saline): 4 of 10
- survivor count (dose: 24.0 mg/kg/injection, schedule: Q01DX009 (oral), vehicle: saline): 0 of 10
- survivor count (dose: 32.0 mg/kg/injection, schedule: Q04DX003 (ip), vehicle: saline): 7 of 8
- survivor count (dose: 32.0 mg/kg/injection, schedule: Q## X008 (ip), vehicle: saline): 6 of 10
- survivor count (dose: 32.0 mg/kg/injection, schedule: Q## X024 (ip), vehicle: saline): 7 of 10
- survivor count (dose: 36.0 mg/kg/injection, schedule: Q04DX003 (ip), vehicle: saline): 7 of 8, 7 of 7, 8 of 8
- survivor count (dose: 48.0 mg/kg/injection, schedule: Q01DX001 (oral), vehicle: saline): 0 of 10
- survivor count (dose: 48.0 mg/kg/injection, schedule: Q01DX009 (oral), vehicle: saline): 0 of 10
- survivor count (dose: 64.0 mg/kg/injection, schedule: Q01DX001 (ip), vehicle: saline): 3 of 10
- survivor count (dose: 64.0 mg/kg/injection, schedule: Q04DX003 (ip), vehicle: saline): 0 of 8
- survivor count (dose: 64.0 mg/kg/injection, schedule: Q## X002 (ip), vehicle: saline): 0 of 10
- survivor count (dose: 64.0 mg/kg/injection, schedule: Q## X008 (ip), vehicle: saline): 0 of 10
- survivor count (dose: 64.0 mg/kg/injection, schedule: Q## X016 (ip), vehicle: saline): 0 of 10
- survivor count (dose: 96.0 mg/kg/injection, schedule: Q01DX001 (oral), vehicle: saline): 0 of 10
- survivor count (dose: 128.0 mg/kg/injection, schedule: Q01DX001 (ip), vehicle: saline): 0 of 10
- survivor count (dose: 128.0 mg/kg/injection, schedule: Q## X008 (ip), vehicle: saline): 0 of 10
- survivor count (dose: 192.0 mg/kg/injection, schedule: Q01DX001 (oral), vehicle: saline): 0 of 10
- survivor count (dose: 384.0 mg/kg/injection, schedule: Q01DX001 (oral), vehicle: saline): 0 of 10

SMILES: O=S(O)OS(=O)O
- T/C [1]: 125 % of control

SMILES: O=c1oc2c(CN3CCCC3)c(O)ccc2c2c1CCCC2
- survivor count (dose: 64.0 mg/kg/injection, schedule: Q01DX009 (ip), vehicle: Klucel (hydroxypropylcellulose) (HPC)): 1 of 6
- survivor count (dose: 128.0 mg/kg/injection, schedule: Q01DX009 (ip), vehicle: Klucel (hydroxypropylcellulose) (HPC)): 0 of 6
- survivor count (dose: 256.0 mg/kg/injection, schedule: Q01DX009 (ip), vehicle: Klucel (hydroxypropylcellulose) (HPC)): 0 of 6

SMILES: CCOC(=O)C(Br)(C(=O)OCC)C(c1ccccc1)c1ccccc1
- survivor count (dose: 200.0 mg/kg/injection, schedule: Q01DX009 (ip), vehicle: saline with Tween-80): 4 of 6

SMILES: CN(C)CCSC1=CC(=O)c2ccccc2C1=O
- survivor count (dose: 3.12 mg/kg/injection, schedule: Q01DX009 (ip), vehicle: water): 3 of 6
- survivor count (dose: 6.25 mg/kg/injection, schedule: Q01DX009 (ip), vehicle: water): 0 of 6
- survivor count (dose: 6.25 mg/kg/injection, schedule: Q04DX003 (ip), vehicle: water): 4 of 6

SMILES: Cc1cc(C)c(NC(=O)N(CCCl)N=O)cc1C
- T/C (dose: 100.0 mg/kg/injection, schedule: Q01DX009 (ip), vehicle: other): 127 and 145 % of control [5 of 6 alive]
- survivor count (dose: 150.0 mg/kg/injection, schedule: Q01DX009 (ip), vehicle: other): 2 of 6

SMILES: N/C(=N/N=C/c1ccncc1)N[N+](=O)[O-]
- survivor count [2]: 4 of 6
- survivor count [1]: 1 of 6

SMILES: Cn1cnc([N+](=O)[O-])c1Sc1nc(N)nc2c1ncn2C1CC(O)C(CO)O1 (stereo not given)
- T/C (dose: 3.12 mg/kg/injection, schedule: Q01DX005 (ip), vehicle: Klucel (hydroxypropylcellulose) (HPC)): 135 % of control
- T/C (dose: 12.5 mg/kg/injection, schedule: Q01DX005 (ip), vehicle: Klucel (hydroxypropylcellulose) (HPC)): 148 % of control
- T/C (dose: 12.5 mg/kg/injection, schedule: Q01DX009 (ip), vehicle: saline): 136 % of control
- T/C (dose: 25.0 mg/kg/injection, schedule: Q01DX005 (ip), vehicle: Klucel (hydroxypropylcellulose) (HPC)): 145 % of control
- survivor count (dose: 50.0 mg/kg/injection, schedule: Q01DX009 (ip), vehicle: saline): 6 of 6
- survivor count [2]: 6 of 6
- survivor count (dose: 200.0 mg/kg/injection, schedule: Q04DX003 (ip), vehicle: saline): 6 of 6
- survivor count (dose: 400.0 mg/kg/injection, schedule: Q04DX003 (ip), vehicle: saline): 6 of 6

SMILES: CSC(=O)OCC1=CC2OC(=O)C3=COC(OC4OC(CO)C(O)C(O)C4O)C1C32 (stereo not given)
- T/C (dose: 8.0 mg/kg/injection, schedule: Q01DX009 (ip), vehicle: saline with Tween-80): 129 % of control

SMILES: C=CCN(CC=C)P(=O)(N1CC1)N1CC1C (stereo not given)
- T/C (dose: 0.36 mg/kg/injection, schedule: Q01DX009 (ip), vehicle: saline): 125 and 145 % of control
- T/C (dose: 0.5 mg/kg/injection, schedule: Q04DX003 (ip), vehicle: saline): 130 % of control
- T/C (dose: 0.56 mg/kg/injection, schedule: Q01DX009 (ip), vehicle: saline): 137 % of control
- T/C (dose: 0.63 mg/kg/injection, schedule: Q01DX009 (ip), vehicle: saline): 136 % of control
- T/C (dose: 0.88 mg/kg/injection, schedule: Q04DX003 (ip), vehicle: saline): 145 % of control
- T/C (dose: 1.0 mg/kg/injection, schedule: Q04DX003 (ip), vehicle: saline): 130 % of control
- T/C (dose: 1.25 mg/kg/injection, schedule: Q01DX009 (ip), vehicle: saline): 86, 92, 104, 132, 145 % of control
- T/C (dose: 1.25 mg/kg/injection, schedule: Q04DX003 (ip), vehicle: saline): 131 % of control
- survivor count (dose: 1.87 mg/kg/injection, schedule: Q01DX009 (ip), vehicle: saline): 6 of 6
- survivor count (dose: 2.5 mg/kg/injection, schedule: Q01DX009 (ip), vehicle: saline): 6 of 6
- survivor count (dose: 5.0 mg/kg/injection, schedule: Q01DX009 (ip), vehicle: saline): 6 of 6
- survivor count (dose: 10.0 mg/kg/injection, schedule: Q04DX003 (ip), vehicle: saline): 6 of 6
- survivor count (dose: 20.0 mg/kg/injection, schedule: Q04DX003 (ip), vehicle: saline): 5 of 6

SMILES: C=CC12COC(=O)C(=C)C1C(O)C1C(=C)C(=O)OC1C2 (stereo not given)
- T/C (dose: 1.88 mg/kg/injection, schedule: Q01DX009 (ip), vehicle: saline + alcohol): 136 % of control
- T/C (dose: 7.5 mg/kg/injection, schedule: Q01DX009 (ip), vehicle: saline + alcohol): 127 % of control
- survivor count (dose: 30.0 mg/kg/injection, schedule: Q01DX009 (ip), vehicle: saline + alcohol): 0 of 6
